Results as given in PMC9323733, “Efficacy of Vafidemstat in Experimental Autoimmune Encephalomyelitis Highlights the KDM1A/RCOR1/HDAC Epigenetic Axis in Multiple Sclerosis” (Pharmaceutics, 2022).

Key:
brain of EAE mice = assay: Microarray, brain of EAE mice, effector phase (E), 24 h after treatment; ORY-2001 0.5 mg/kg, FTY720 1.0 mg/kg; format: in vivo, mouse
Method: (§1) We evaluated differences in gene expression induced by the treatment using real-time PCR and by microarray hybridization analysis. First, total RNA was isolated from brain and spinal cord segments from EAE mice using Qiazol™ and the RNeasy MiniKit™ extraction kit (Qiagen). Evaluation of RNA quality was performed with the Agilent 2100 bioanalyzer and NanoDrop™ ND-1000 (Thermo Scientific, Dartford, Kent, UK). After DNAse I treatment, RNA (1 µg/sample) was reverse transcribed using RevertAid First strand cDNA Synthesis kit (Fermentas) and random hexamer primers. […]
(§2) For the gene expression studies, data from microarray assays were normalized by modified nonlinear Q-splines normalization method and Log2(Sample/Vehicle) values calculated without background correction (which permits robust selection of differentially expressed genes yet may lead to sub-estimation of the magnitude of change for genes expressed near the detection limit). Differential expression was assessed with the proprietary Polyphemus software using robust statistics on the average technical replicates (3 replicates/gene oligo datapoint) after removing eventual outlier points (caused by dust or array imperfections). […]

spinal cord of EAE mice = assay: Microarray, spinal cord of EAE mice, effector phase (E), 24 h after treatment; ORY-2001 0.5 mg/kg, FTY720 1.0 mg/kg; format: in vivo, mouse
Method: as §1, §2

Nc1nnc(CN[C@@H]2C[C@H]2c2ccc(OCc3ccccc3)cc2)o1 [ORY-2001]
slope of regression line, Log2(ORY-2001/Veh) versus Log2(FTY720/Veh) (brain of EAE mice): 0.7308
slope of regression line, Log2(ORY-2001/Veh) versus Log2(FTY720/Veh) (spinal cord of EAE mice): 0.827
